Assay results taken from PubChem BioAssay AID493014 (National Center for Advancing Translational Sciences (NCATS), 2011).
The other results are listed elsewhere or left out. Shown are side measurements of this screen, not its main read-out; they come without a call. Compounds called inactive in the main read-out are mostly missing here. Words in brackets tell the shape of the fitted curve; partial curves, single points and poor fits give uncertain potencies.

Assay: qHTS Assay to Find Inhibitors of Chronic Active B-Cell Receptor Signaling
Details: ABC-DLBCL IkBa-CBG/CBR reporter, luminescence ratio (green luciferase fused to IkBa over red control in TMD8 lymphoma cells), 4 h
In short: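 Cell line TMD8 (human ABC DLBCL), stably expressing tet-inducible CBG68-IkBa fusion and CBR; IMDM/0.5% FBS; cpd up to 46 uM; dox induction, 4 h, 37C/5% CO2; dual luminescence; green/red ratio; MG132 control.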

[1] = measured here: CBR red luminescence, cell number
[2] = measured here: IkBa-CBG green luminescence

O=C(CNC(=O)c1ccco1)NCC(=O)OCc1ccc(C(=O)Oc2ccc(Cl)cc2)cc1
AC50 [1]: 16.4 µM [rising, partial curve, poor fit]

O=C(NCCc1ccccc1)c1ccc(Cl)c([N+](=O)[O-])c1
AC50 [1]: 35.5 µM [falling, single point]

CC1(c2ccc(OC(F)F)cc2)NC(=O)N(CC(=O)Nc2cccc(S(N)(=O)=O)c2)C1=O (stereo unspecified)
AC50 [1]: 35.5 µM [rising, single point]

Cc1ccccc1NC(=O)C1CC(=O)N(c2ccc3c4c(cccc24)CC3)C1 (stereo unspecified)
AC50 [1]: 14.1 µM [falling, partial curve, poor fit]

O=C(NNC(=S)NC(=O)c1ccccc1)c1ccc([N+](=O)[O-])cc1
AC50 [1]: 3.55 µM [falling, full curve]

Cn1c(=O)oc2cc(S(=O)(=O)N3CCC(C(=O)NCCc4ccccc4)CC3)ccc21
AC50 [1]: 3.16 µM [falling, single point]

CCC(C)N(C(=O)COc1ccccc1C(=O)NCc1ccccc1)C1CCS(=O)(=O)C1 (stereo unspecified)
AC50 [1]: 35.5 µM [falling, single point]

CC(C)(C)N(Cc1ccccc1)C(=O)c1ccc(Br)o1
AC50 [1]: 8.91 µM [rising, partial curve]

Cc1cc(NS(=O)(=O)c2ccc(Nc3nc(-c4ccc(C)c(C)c4)cs3)cc2)no1
AC50 [1]: 23.1 µM [falling, single point]

Cc1cc(NC(=O)c2cc(-c3ccc(C)s3)nc3ccccc23)no1
AC50 [1]: 0.291 µM [falling, full curve, poor fit]

COc1ccccc1/C=N/Nc1cc(C)nc(N2CCOCC2)n1
AC50 [1]: 17.8 µM [falling, partial curve, poor fit]

O=C(NCCc1ccccc1)Nc1ccc(Cl)cc1
AC50 [1]: 0.231 µM [rising, full curve, poor fit]

CSc1nc(N)nc(SCC(=O)OC(C)C)c1C#N
AC50 [1]: 1 µM [rising, partial curve, poor fit]

COc1cc(/C=N/NC(=O)c2nnn(-c3nonc3N)c2C(C)C)ccc1OCc1ccc(F)cc1
AC50 [2]: 14.1 µM [rising, partial curve, poor fit]

O=C(CNC(=O)c1ccc(C(F)(F)F)cc1)NC1CC1
AC50 [1]: 0.00461 µM [rising, full curve, poor fit]

Cn1c(=O)[nH]c(NC2CCCCC2)c([N+](=O)[O-])c1=O
AC50 [1]: 1.3 µM [rising, full curve]

O=C(Nc1ccccc1C(=O)NCC1CCCO1)c1ccccc1 (stereo unspecified)
AC50 [1]: 15.8 µM [falling, single point]

O=c1c(Cl)c(Cl)cnn1Cc1nnc(-c2ccccc2Br)o1
AC50 [1]: 8.91 µM [falling, partial curve]
AC50 [2]: 11.2 µM [rising, partial curve, poor fit]

Cc1cc(Cl)ccc1N(CC(=O)N=Nc1c(O)[nH]c2ccccc12)S(C)(=O)=O
AC50 [1]: 23.1 µM [falling, single point]

Cc1c(C(=O)N2CCCC2)sc(NC(=O)c2ccccc2)c1C#N
AC50 [1]: 20.6 µM [falling, single point]
AC50 [2]: 20.6 µM [rising, partial curve, poor fit]

Cn1c(NNC(=O)c2c(F)cccc2F)cc(=O)n(C)c1=O
AC50 [1]: 0.562 µM [falling, partial curve, poor fit]

COc1ccc(-c2nn(-c3ccccc3)cc2/C=C/C(=O)N2CCOCC2)cc1OC
AC50 [1]: 11.2 µM [falling, single point]

Clc1ccc(COc2ccccc2-c2ccnc3ncnn23)cc1
AC50 [1]: 2.51 µM [rising, partial curve]

COc1ccccc1NS(=O)(=O)c1cc(NC(=O)c2cccs2)ccc1N1CCCC1
AC50 [1]: 9.2 µM [rising, partial curve]

COc1cc(NC(=O)c2cccnc2Sc2ccc(C)c(C)c2)cc(OC)c1OC
AC50 [1]: 1.84 µM [rising, partial curve, poor fit]

O=S(=O)(c1ccc2ccccc2c1)N1C=CC(C(F)(F)F)=NCC1
AC50 [1]: 0.651 µM [falling, partial curve, poor fit]

O=C(O)Cc1sc(Nc2ccccc2)nc1-c1cccs1
AC50 [1]: 14.1 µM [falling, single point]

COC(=O)C1C(O)=C(C(C)=Nc2cccc3ccccc23)C(=O)CC1(C)C (stereo unspecified)
AC50 [1]: 1.26 µM [rising, partial curve, poor fit]

Cc1c(C(=O)N2CCCc3ccccc32)sc2nc(-c3ccccc3)cn12
AC50 [1]: 6.31 µM [falling, single point]

CCc1ccc(OCC(=O)NC(=S)Nc2ccc(C(C)=O)cc2)c(Br)c1
AC50 [1]: 0.58 µM [rising, full curve, poor fit]

O=C(CSc1ncc(-c2ccccc2)[nH]1)Nc1ccccc1F
AC50 [1]: 2 µM [rising, full curve, poor fit]

COc1ccc(/C=C/C(=O)c2c(O)c(OC)c3occc3c2OC)cc1
AC50 [2]: 15.8 µM [falling, single point]

COc1cc(NC(=O)c2ccco2)c(OC)cc1NC(=O)Nc1ccccc1Cl
AC50 [1]: 18.4 µM [rising, single point]

Cc1cc(C(=O)COC(=O)c2ccc(N)c([N+](=O)[O-])c2)c(C)n1-c1ccc2c(c1)OCO2
AC50 [1]: 5.17 µM [falling, partial curve]

O=C(/C=C/c1ccco1)N1CCCC(c2ccccc2)C1 (stereo unspecified)
AC50 [1]: 3.98 µM [rising, full curve, poor fit]

S=c1[nH]nc(COc2ccc3ccccc3c2)o1
AC50 [1]: 5.17 µM [falling, full curve, poor fit]

COCCn1cc(C(=O)c2ccccc2OCC(=O)Nc2cc(C)on2)cc(C#N)c1=O
AC50 [1]: 4.11 µM [falling, single point]
AC50 [2]: 5.17 µM [rising, partial curve, poor fit]

O=C(Nc1ccc(-c2nnn(CC(=O)N3CCN(C(=O)c4ccco4)CC3)n2)cc1)c1ccccc1F
AC50 [1]: 14.1 µM [falling, single point]

COc1ccc(C(=O)OC(C)CN2CCOCC2)cc1OC (stereo unspecified)
AC50 [1]: 35.5 µM [rising, single point]

COc1cccc2cc(-c3nnc(-c4ccccc4)o3)c(=O)oc12
AC50 [1]: 2 µM [falling, partial curve, poor fit]

Cc1oc(-c2ccc(Cl)cc2)nc1CN1CCC(C(=O)NCCCN2CCOCC2)CC1
AC50 [1]: 35.5 µM [falling, single point]

O=C(O)CCC(=O)Nc1ccccc1C(=O)NCc1ccco1
AC50 [1]: 13 µM [rising, single point]

COc1ccc(CNCCc2ccc(Cl)cc2)cc1OCc1ccccc1
AC50 [1]: 1 µM [falling, full curve, poor fit]

COc1ccc(S(=O)(=O)Nc2cc(Cl)ccc2OC)cc1
AC50 [1]: 15.8 µM [rising, single point]
AC50 [2]: 22.4 µM [falling, single point]

C=CCn1c(SCc2ccc(Br)cc2F)nc2cc(C(=O)O)ccc2c1=O
AC50 [1]: 5.62 µM [falling, single point]

Cc1cc(/C=N/NC(=O)c2nn(C)cc2Cl)c(C)n1-c1cccc(Br)c1
AC50 [1]: 20.6 µM [falling, single point]

CC(=O)c1ccccc1OC(=O)c1c(F)cccc1F
AC50 [1]: 28.2 µM [rising, single point]

O=C(CNc1ccccc1F)Nc1cccc(S(=O)(=O)N2CCCCC2)c1
AC50 [1]: 18.4 µM [falling, single point]

CC1CCN(Cc2cc(=O)oc3ccc4ccccc4c23)CC1
AC50 [1]: 5.62 µM [falling, single point]

COc1ccc(-c2csc(NC(C)=O)n2)cc1OC
AC50 [1]: 29.1 µM [falling, single point]

CCCCn1c2c(c(=O)n(C)c1=O)C(c1ccc(OC)cc1)N1CCCCCC1=N2 (stereo unspecified)
AC50 [1]: 10 µM [falling, partial curve, poor fit]

COC(=O)c1cc(=O)nc2sccn12
AC50 [1]: 6.51 µM [rising, single point]

Cc1cc(Cl)ccc1OCC(O)CNCCc1ccc(S(N)(=O)=O)cc1 (stereo unspecified)
AC50 [1]: 7.94 µM [falling, partial curve, poor fit]

CC[C@H](C)[C@H](NS(=O)(=O)c1ccc(C)cc1)C(=O)N1CCC(C(=O)N[C@@H](C)C(=O)O)CC1
AC50 [1]: 17.8 µM [rising, partial curve, poor fit]

C[C@H](CO)N1C[C@H](C)[C@@H](CN(C)Cc2ccc(Cl)c(Cl)c2)Oc2c(NC(=O)CCC(F)(F)F)cccc2C1=O
AC50 [1]: 20.6 µM [falling, single point]

CCCCOc1ccc(Cl)cc1CSc1nnc(C)n1N
AC50 [1]: 6.51 µM [rising, single point]

O=c1c2ccccc2oc2ccc(NCCCN3CCOCC3)cc12
AC50 [1]: 3.16 µM [rising, single point]

Cc1cc(-n2c(SCc3ccccc3F)nc3[nH]ncc3c2=O)ccc1Cl
AC50 [1]: 22.4 µM [falling, single point]

CCc1ccc2c(c1)C1(NN=C(c3ccccc3)S1)C(=O)N2 (stereo unspecified)
AC50 [1]: 29.1 µM [falling, single point]

CCOc1cc(N2CCOCC2)c(OCC)cc1NC(=O)c1c(C)noc1C
AC50 [1]: 0.92 µM [rising, full curve, poor fit]

CCCN1CC(=O)N2Cc3[nH]c4ccccc4c3C[C@H]2C1=O
AC50 [1]: 15.8 µM [rising, single point]

Cc1ccc(C(=O)NC2CCCCCCC2)cc1S(=O)(=O)N1CCOCC1
AC50 [1]: 0.092 µM [rising, full curve, poor fit]
